Data published in US20090062190A1, “Transcriptional Regulation of Cytokines by LITAF and STAT (6)(B)” (priority 2005, published 2009).
No constants are given. Whether binding was seen depends on the method and setting. Some binding calls cover weakened binding; strength is not graded here. For some of these results: Where a sequence is shown, tags or fusion partners need not be part of it. Values belong to the binder of their own block, whether it stands above or below them.

Columns and labels:
[1] = molecular target: pGBKLITAF bait (full length LITAF in pGBKT7); experiment: yeast two-hybrid, LITAF bait against human spleen pACT2-cDNA library, high-stringency selection
[2] = molecular target: pGBKLITAF bait (full length LITAF in pGBKT7); experiment: yeast two-hybrid
[3] = molecular target: LITAF (LPS-induced TNF-α factor), full length; experiment: EMSA, extracts of co-transfected U2OS cells with labeled hTNF-α promoter DNA
[4] = molecular target: LITAF (LPS-induced TNF-α factor), full length; experiment: EMSA (figure legend)

- binding [1]: binds
- binding [2]: binds
B1: STAT6(B) clone from the human spleen pACT2-cDNA library (activation domain fusion) (protein, not shown: large carriers)
chain: MARRNPSPPLQRLRDWGHHHCPCHPGPGWLSTDGEHPAILCQRPVHSLTGGPNPGSCSAQKSLSQEAQGGGFPEPLQAWAGTGCSDSFLSPTSSLLPAALLSLPVCHPDVTPYFIAVLLLLPHDPCPPFPPPFLPNPRALHGCLFLLTTAEQMGKDGRGYVPATIKMTVERGVWWYGQWVGQGLVVLICRKEGWHQPLVSHMYLLPSSRDQPLPTPELQMPTMVPSYDLGMAPDSSMSMQLGPDMVPQVYPPHSHSIPPYQGLSPEESVNVLSAFQEPHLQMPPSLGQMSLSFDQPHPQGLLPCQPQEHAVSSPDPLLCSDVTTVEDSCLSQPVTAFPQGTWIGEDIFPPLLPPTEQDLTKLLLEGQGESGGGSLGAQPLLQPSHYGQSGISMSHMDLRANPSW

- binding [3]: binds
- binding [4]: binds
B2: STAT6(B) (Signal transducer and activator of transcription), full length, aa 1-404 (protein)
chain: B1 chain
